In the supplement of paper PMC11006884:
Only a part is listed here, and it is no random draw.

Chains of the proteins cited; added tags and fusions are not shown. Lines headed by an entry give the natural chain unless they say otherwise; changes in a name come on top.
UniProt P60981: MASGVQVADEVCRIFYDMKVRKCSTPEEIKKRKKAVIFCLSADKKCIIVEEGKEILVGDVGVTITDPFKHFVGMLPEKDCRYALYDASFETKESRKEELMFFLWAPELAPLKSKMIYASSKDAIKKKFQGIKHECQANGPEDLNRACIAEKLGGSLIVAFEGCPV
UniProt P54886: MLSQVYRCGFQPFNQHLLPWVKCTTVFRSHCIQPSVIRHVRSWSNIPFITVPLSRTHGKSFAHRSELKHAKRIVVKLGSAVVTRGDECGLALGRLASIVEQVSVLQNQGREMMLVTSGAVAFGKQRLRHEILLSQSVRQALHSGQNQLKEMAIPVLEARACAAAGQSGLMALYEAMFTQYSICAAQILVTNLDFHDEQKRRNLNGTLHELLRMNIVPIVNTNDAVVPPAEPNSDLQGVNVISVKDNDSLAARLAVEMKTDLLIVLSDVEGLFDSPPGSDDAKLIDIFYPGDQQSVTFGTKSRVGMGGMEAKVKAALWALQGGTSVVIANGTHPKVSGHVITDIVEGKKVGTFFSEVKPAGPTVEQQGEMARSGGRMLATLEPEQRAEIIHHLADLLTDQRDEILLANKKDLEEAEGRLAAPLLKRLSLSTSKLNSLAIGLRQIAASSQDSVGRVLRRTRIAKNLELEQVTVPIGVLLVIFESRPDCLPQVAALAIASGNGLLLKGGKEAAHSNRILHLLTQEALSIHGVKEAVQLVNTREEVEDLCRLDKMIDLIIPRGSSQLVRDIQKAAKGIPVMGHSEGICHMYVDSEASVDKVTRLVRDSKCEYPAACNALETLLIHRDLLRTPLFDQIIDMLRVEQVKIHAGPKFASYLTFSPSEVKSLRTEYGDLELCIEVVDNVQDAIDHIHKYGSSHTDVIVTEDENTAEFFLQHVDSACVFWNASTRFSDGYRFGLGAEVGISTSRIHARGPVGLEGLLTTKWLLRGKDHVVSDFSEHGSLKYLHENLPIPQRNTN
UniProt P60891: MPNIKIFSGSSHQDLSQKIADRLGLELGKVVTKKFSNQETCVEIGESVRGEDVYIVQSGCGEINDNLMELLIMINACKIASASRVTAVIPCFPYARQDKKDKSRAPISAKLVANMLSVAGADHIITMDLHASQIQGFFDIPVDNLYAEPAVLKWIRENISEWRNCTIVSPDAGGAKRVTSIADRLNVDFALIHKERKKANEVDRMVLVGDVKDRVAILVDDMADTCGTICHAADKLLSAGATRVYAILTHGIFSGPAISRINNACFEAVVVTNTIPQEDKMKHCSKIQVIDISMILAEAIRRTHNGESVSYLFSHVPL
UniProt P55072, whole entry, looked up: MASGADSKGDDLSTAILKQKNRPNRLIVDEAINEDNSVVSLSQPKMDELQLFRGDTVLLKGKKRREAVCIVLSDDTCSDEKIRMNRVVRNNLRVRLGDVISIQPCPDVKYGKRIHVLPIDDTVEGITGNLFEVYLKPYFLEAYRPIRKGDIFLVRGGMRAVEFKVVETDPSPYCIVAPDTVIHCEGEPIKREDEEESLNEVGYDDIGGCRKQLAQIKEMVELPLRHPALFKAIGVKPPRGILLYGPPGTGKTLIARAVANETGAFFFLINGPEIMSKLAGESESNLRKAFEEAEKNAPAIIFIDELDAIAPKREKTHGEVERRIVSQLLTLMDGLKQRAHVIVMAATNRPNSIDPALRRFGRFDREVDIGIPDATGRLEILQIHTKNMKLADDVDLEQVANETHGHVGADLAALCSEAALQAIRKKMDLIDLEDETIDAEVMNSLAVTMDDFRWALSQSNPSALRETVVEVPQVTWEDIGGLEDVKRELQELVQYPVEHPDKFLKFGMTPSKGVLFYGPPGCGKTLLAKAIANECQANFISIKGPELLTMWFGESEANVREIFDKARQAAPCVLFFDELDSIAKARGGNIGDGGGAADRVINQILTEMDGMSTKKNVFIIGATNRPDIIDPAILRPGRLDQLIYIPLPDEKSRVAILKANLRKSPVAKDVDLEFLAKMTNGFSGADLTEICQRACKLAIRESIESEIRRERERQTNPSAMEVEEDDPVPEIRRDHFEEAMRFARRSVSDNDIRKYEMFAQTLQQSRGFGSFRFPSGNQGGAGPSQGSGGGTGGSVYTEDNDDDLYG
UniProt P53597: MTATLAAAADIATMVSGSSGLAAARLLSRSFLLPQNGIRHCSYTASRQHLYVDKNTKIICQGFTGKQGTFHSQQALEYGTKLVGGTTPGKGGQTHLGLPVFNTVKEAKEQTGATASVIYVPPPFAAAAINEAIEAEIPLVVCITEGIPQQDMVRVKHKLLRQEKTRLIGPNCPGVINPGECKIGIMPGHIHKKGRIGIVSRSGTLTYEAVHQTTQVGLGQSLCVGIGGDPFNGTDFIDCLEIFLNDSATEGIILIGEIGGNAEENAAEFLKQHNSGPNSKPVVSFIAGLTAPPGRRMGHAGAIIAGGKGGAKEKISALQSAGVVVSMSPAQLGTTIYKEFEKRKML
UniProt P54098: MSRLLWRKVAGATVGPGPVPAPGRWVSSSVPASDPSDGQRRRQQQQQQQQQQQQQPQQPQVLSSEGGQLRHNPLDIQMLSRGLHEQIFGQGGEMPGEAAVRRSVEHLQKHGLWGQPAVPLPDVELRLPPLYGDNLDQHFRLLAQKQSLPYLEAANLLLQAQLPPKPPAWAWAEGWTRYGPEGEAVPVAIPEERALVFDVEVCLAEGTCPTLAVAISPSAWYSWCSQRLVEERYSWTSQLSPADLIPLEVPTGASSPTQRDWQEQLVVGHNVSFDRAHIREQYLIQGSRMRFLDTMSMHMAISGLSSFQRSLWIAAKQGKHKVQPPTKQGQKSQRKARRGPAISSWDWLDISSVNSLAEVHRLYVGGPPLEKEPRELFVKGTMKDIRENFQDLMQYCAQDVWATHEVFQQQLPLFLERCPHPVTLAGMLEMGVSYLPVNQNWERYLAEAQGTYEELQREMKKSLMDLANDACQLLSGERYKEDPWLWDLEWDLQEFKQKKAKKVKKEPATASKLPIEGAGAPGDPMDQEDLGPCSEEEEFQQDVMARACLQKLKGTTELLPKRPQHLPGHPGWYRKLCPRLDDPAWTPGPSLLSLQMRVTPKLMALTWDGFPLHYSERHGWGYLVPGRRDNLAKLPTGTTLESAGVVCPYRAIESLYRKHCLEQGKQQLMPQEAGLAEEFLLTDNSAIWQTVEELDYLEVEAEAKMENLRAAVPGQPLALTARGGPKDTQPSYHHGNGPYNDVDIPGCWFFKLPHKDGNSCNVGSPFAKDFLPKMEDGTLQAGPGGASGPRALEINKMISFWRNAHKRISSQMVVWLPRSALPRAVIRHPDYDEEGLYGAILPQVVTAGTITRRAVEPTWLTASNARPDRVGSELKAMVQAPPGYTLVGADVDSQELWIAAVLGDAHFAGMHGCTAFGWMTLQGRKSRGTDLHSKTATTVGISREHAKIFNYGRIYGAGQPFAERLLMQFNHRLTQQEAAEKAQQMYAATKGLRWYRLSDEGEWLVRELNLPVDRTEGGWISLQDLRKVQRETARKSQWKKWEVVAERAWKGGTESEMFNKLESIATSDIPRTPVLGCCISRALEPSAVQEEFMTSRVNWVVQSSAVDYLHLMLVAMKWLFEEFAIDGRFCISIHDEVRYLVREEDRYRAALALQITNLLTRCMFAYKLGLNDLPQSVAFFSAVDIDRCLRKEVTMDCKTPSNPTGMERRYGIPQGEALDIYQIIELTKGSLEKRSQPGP
UniProt P53602: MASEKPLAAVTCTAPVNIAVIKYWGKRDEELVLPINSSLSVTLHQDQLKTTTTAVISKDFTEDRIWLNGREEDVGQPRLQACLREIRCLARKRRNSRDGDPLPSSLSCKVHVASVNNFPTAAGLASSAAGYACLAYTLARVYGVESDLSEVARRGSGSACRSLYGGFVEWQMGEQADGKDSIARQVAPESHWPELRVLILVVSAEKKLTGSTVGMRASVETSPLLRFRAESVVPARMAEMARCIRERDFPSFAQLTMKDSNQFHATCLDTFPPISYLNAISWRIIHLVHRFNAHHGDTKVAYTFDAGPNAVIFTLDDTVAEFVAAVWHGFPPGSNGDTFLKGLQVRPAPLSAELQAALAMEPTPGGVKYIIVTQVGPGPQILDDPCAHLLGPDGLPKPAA
UniProt P53618: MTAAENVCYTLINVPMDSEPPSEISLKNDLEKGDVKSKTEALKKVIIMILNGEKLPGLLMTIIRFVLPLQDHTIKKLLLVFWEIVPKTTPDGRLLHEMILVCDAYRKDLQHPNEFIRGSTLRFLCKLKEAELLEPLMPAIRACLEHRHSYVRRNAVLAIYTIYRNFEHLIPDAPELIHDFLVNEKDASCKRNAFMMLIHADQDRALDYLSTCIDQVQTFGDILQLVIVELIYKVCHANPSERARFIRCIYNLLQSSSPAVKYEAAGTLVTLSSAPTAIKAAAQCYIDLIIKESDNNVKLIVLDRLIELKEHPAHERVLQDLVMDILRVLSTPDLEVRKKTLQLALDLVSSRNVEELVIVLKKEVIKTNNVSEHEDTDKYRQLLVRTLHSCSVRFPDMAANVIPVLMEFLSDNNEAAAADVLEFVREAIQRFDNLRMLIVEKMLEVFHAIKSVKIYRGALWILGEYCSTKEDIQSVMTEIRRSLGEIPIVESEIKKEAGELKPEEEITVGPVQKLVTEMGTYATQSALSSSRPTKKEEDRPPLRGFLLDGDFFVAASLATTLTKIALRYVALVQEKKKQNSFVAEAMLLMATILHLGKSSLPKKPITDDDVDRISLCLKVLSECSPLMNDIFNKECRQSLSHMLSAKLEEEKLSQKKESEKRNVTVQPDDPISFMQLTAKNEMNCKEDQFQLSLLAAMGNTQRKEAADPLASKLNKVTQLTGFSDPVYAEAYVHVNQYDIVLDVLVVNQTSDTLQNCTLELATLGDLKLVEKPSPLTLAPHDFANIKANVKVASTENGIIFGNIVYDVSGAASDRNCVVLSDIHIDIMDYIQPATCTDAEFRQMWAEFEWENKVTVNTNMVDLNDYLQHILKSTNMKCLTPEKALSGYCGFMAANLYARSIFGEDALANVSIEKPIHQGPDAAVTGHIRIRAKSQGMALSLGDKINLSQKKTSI
UniProt P60660, whole entry: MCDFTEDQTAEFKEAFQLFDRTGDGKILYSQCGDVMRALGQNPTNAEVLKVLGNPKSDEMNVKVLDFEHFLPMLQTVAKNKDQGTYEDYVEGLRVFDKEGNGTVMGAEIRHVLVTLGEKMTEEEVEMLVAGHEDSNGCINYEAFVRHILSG
UniProt P53992: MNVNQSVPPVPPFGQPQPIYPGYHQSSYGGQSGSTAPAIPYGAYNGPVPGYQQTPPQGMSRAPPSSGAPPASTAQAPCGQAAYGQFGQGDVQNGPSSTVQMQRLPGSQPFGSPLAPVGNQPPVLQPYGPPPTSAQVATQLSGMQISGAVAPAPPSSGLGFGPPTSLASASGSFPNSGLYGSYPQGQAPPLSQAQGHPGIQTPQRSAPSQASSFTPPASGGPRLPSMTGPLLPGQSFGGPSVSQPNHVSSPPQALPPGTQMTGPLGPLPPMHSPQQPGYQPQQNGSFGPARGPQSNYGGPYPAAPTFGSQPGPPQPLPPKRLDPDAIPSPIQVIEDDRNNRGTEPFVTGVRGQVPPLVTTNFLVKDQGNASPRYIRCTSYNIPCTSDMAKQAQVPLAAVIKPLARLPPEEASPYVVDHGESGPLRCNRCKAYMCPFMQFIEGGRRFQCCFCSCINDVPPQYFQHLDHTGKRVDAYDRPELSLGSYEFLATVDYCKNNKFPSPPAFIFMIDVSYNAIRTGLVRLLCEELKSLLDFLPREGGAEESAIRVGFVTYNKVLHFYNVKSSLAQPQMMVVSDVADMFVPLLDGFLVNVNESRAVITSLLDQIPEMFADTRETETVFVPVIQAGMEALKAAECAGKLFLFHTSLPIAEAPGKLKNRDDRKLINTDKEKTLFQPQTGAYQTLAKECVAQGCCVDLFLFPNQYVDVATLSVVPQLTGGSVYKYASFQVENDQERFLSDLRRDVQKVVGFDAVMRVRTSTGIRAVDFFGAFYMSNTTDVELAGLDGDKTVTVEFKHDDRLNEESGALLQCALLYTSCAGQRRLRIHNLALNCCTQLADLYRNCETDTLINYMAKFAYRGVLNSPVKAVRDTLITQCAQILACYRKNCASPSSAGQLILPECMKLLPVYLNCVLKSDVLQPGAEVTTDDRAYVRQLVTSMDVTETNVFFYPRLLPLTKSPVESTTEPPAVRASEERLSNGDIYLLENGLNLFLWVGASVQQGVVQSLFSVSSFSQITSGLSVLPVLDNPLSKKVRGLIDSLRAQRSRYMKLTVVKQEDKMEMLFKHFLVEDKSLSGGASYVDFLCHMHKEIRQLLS
UniProt P53384: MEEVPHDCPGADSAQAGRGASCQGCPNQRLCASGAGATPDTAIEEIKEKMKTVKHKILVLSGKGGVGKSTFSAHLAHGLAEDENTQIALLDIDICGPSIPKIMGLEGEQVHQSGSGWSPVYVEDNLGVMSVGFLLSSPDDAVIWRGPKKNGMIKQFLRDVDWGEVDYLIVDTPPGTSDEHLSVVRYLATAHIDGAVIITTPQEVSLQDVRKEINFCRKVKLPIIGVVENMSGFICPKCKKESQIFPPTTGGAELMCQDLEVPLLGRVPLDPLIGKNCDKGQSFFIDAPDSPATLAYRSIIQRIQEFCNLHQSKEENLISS

These targets were tested with COC(=O)C#Cc1ccccc1 [methyl 3-phenylpropiolate] (assay: log2 ratio of iodoacetamide-alkyne labeling of the cysteine site, DMSO over compound (competition); higher = stronger covalent engagement of the cysteine by the compound, active = 1 or more). Details: 500 µM; treatment time 1 h; system: HEK293T cell lysate.
Procedure, shortened: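 After 1 h at ambient temperature with vehicle or electrophile (500 µM), HEK293T lysate (2 mg/mL) was labelled for 1 h with iodoacetamide alkyne and clicked to sCIP-TMT reagents. Pooled samples were trypsin-digested overnight at 37 °C, streptavidin-enriched, acid-eluted and analysed by Orbitrap Eclipse LC-MS/MS with FAIMS, then quantified in FragPipe over three replicates with duplicate channels. A cysteine's log2 competition ratio is its mean control-channel over mean compound-channel reporter intensity. Cysteines quantified in only one replicate were not included.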

log2 ratio of iodoacetamide-alkyne labeling, inactive:
DSTN C135 (UniProt P60981) 0.0319, ALDH18A1 C88 (UniProt P54886) 0.288, UniProt P60891_C226 0.257, UniProt P55196_C1684 0.266, UniProt P55072_C415 -0.0571, SUCLG1 C60 (UniProt P53597) 0.351, UniProt P60866_C36 0.113, UniProt P61289_C92 0.491, RARS C115 (UniProt P54136) -0.0624, UniProt P55769_C30 -0.0266, UniProt P61978_C145 0.0391, THOP1 C18 (UniProt P52888) 0.539, HADHB C458 (UniProt P55084) 0.492, UniProt P55769_C93 0.185, UniProt P61927_C19 -0.0866, THOP1 C7 (UniProt P52888) 0.539, ACTR3 C8 (UniProt P61158) 0.0125, KPNA1 C469 (UniProt P52294) 0.678, SRP54 C136 (UniProt P61011) 0.0185, POLG C647 (UniProt P54098) 0.315, UniProt P61160_C221 0.528, UniProt P62244_C30 0.0206, METAP1 C9 (UniProt P53582) 0.325, ADAR C125 (UniProt P55265) 0.62, AK2 C42 (UniProt P54819) 0.229, MVD C386 (UniProt P53602) 0.153, COPB1 C616 (UniProt P53618) 0.0621, UniProt P52564_C196 0.274, UniProt P60660_C32 0.0279, DSTN C163 (UniProt P60981) 0.149, CTSC C258 (UniProt P53634) -0.0449, ACLY C633 (UniProt P53396) 0.16, SEC24C C886 (UniProt P53992) -0.483, UniProt P52564_C38 0.302

log2 ratio of iodoacetamide-alkyne labeling, active:
SUCLG1 C181 (UniProt P53597) 1.72, NUBP1 C25 (UniProt P53384) 2.24, ACTR3 C235 (UniProt P61158) 1.28
